{
  "source": "PubChem BioAssay AID588499",
  "about": "(NMMLSC, 2011)",
  "note": "Among all 360,000 compounds or so, about 610 (0.17%) were called active. The inconclusive results got no clear call from the source; some entries with a clear call stand among them for comparison. Rule as the data show it: active = inhibition above about 30%; inconclusive = no clear call, values can overlap the other calls; inactive = below that.",
  "data": [
    {"tested_on": "Botulinum neurotoxin type A light chain protease (Clostridium botulinum A str. ATCC 3502)", "experiment": "blockers of BoNT/A LC substrate cleavage – biochemical, flow cytometry, MLPCN library, primary screen (AID 588499); also: plate controls were buffer without enzyme for full effect and enzyme alone for no effect", "settings": "multiplex microsphere protease substrate cleavage, at 10 µM, hits give high values", "values": [
      {"compound": "O=C(CSc1nc2ccccc2c(=O)[nH]1)Nc1ccc(C(=O)O)cc1", "inhibition": "inactive: -5.2%"},
      {"compound": "CCOC(=O)Cc1csc(NC(=O)CSc2nc3sc(C(=O)O)c(C)c3c(=O)[nH]2)n1", "inhibition": "inconclusive: 1.3%"},
      {"compound": "Cc1cc(C)c2c(=O)n(CC(=O)Nc3cccc(Cl)c3C)sc2n1", "inhibition": "active: 54.1%"},
      {"compound": "Nc1c(S(=O)(=O)c2cc(Cl)ccc2Cl)c2nc3ccccc3nc2n1CCN1CCOCC1", "inhibition": "inconclusive: 0.2%"},
      {"compound": "CCOC(=O)c1oc2ccc(S(=O)(=O)N3CCOCC3)cc2c1C", "inhibition": "inconclusive: -0.3%"},
      {"compound": "CCc1cc(=O)oc2cc(C)cc(OC(C)C(=O)O)c12", "note": "(centres undefined)", "inhibition": "inconclusive: 0%"},
      {"compound": "COc1ccc(NC(=O)CN(C)CC(=O)N2CCCCCC2)cc1", "inhibition": "inconclusive: -0.5%"},
      {"compound": "CCOC(=O)c1cc(CC)sc1NC(=O)Cc1ccccc1", "inhibition": "inconclusive: -0.9%"},
      {"compound": "COC(=O)c1ccccc1NC(=O)N1CCN(c2ccccc2F)CC1", "inhibition": "inactive: 0.5%"},
      {"compound": "OC[C@@H]1CC[C@@H](Cc2ccc(-c3ccccc3)cc2)O1", "inhibition": "inactive: -0.4%"},
      {"compound": "Cc1cc2cc(CNC(=O)NC3CCCCC3)ccc2[nH]1", "inhibition": "active: 36.7%"},
      {"compound": "O=C(CN1CC[C@@]2(O)CCCC[C@H]2[C@@H]1c1ccc(F)cc1)NCc1ccco1", "inhibition": "inconclusive: 11.2%"},
      {"compound": "O=C1/C(=C\\c2cccs2)N=C(c2cccs2)N1Nc1ccccc1", "inhibition": "active: 68.5%"},
      {"compound": "COCCN1C[C@@H](CO)O[C@@H](n2cnc3c(NCCCO)ncnc32)C1", "inhibition": "inactive: 0.4%"},
      {"compound": "Cc1nnc(SCC(=O)Nc2sccc2C(N)=O)n1Cc1ccccc1", "inhibition": "inconclusive: 4.3%"},
      {"compound": "Cc1sc(-c2ccccn2)nc1OC(=O)c1cccc(Cl)c1Cl", "inhibition": "inconclusive: 21.8%"},
      {"compound": "C=CCNc1nc(-c2ccc(OC)cc2OC)cs1", "inhibition": "inconclusive: 3.5%"},
      {"compound": "CCOC(=O)c1csc(NC(=O)CCS(=O)(=O)c2ccc(Cl)cc2)n1", "inhibition": "inactive: 0.3%"},
      {"compound": "CC(C)(C)c1cc(Cc2ccccc2)[nH]n1", "inhibition": "inconclusive: 0.2%"},
      {"compound": "CCCOc1ccc(-c2nc(C#N)c(NCCCn3ccnc3)o2)cc1", "inhibition": "active: 58.2%"},
      {"compound": "O=C(c1cccn2c(=O)c3ccccc3nc12)N1CCC2(CC1)OCCO2", "inhibition": "inactive: -0.6%"},
      {"compound": "CC(NC(=O)CNC(=O)c1cccs1)c1cccc(C(F)(F)F)c1", "note": "(centres undefined)", "inhibition": "inactive: -3.3%"},
      {"compound": "COC(=O)C(Cc1c[nH]c2ccccc12)NC(=O)c1ccc2nc[nH]c2c1", "note": "(centres undefined)", "inhibition": "inconclusive: -5%"},
      {"compound": "O=C(NNS(=O)(=O)c1ccccc1Cl)c1nn(-c2ccc(F)cc2)ccc1=O", "inhibition": "inconclusive: -18.1%"},
      {"compound": "O=C(Nc1nccs1)c1cc(Cl)nc2ccccc12", "inhibition": "inconclusive: -0.5%"},
      {"compound": "O=c1c2cc(NC(=S)N3CCCC3)ccc2nc2n1CCCCC2", "inhibition": "inactive: 0%"},
      {"compound": "CN(Cc1ccccc1F)C(=O)c1cccc(NC(=O)CC2SC(N3CCCCC3)=NC2=O)c1", "note": "(centres undefined)", "inhibition": "inconclusive: 0.7%"},
      {"compound": "Cc1ccc(-c2csc(SCC(=O)Nc3cc(C)on3)n2)cc1", "inhibition": "inconclusive: 11%"},
      {"compound": "COc1ccc(NC(=O)NCCCN2CCCC2=O)cc1", "inhibition": "inactive: -0.3%"},
      {"compound": "CNC(=S)NNC(=O)c1sccc1OCc1ccccc1", "inhibition": "inconclusive: -0.2%"},
      {"compound": "CCN(CC)CCNC(=O)NC1CCCCC1", "inhibition": "inconclusive: -1.4%"},
      {"compound": "Clc1ccc(N=c2ssnc2Cl)nc1", "inhibition": "inactive: 0.5%"},
      {"compound": "COc1ccc2c(c1)CCCN2C(N)=O", "inhibition": "inconclusive: -1.8%"},
      {"compound": "COc1ccccc1N1CCN(c2cc(=O)n(-c3ccccc3Cl)c(=O)[nH]2)CC1", "inhibition": "inactive: -5.1%"},
      {"compound": "CCC(C(=O)Nc1cccc(C(F)(F)F)c1)c1ccccc1", "note": "(centres undefined)", "inhibition": "inactive: -0.1%"},
      {"compound": "COc1ccc(/C(N)=N/OC(=O)c2cccs2)cc1", "inhibition": "inconclusive: 7.3%"},
      {"compound": "O=C(NN1C(=O)c2ccccc2NC1c1ccccn1)c1ccc(Br)cc1", "note": "(centres undefined)", "inhibition": "inactive: 0.1%"},
      {"compound": "CCOC(=O)c1c(C)c(C(=O)Nc2ccc(N(C)C)cc2)c(C)n1CC", "inhibition": "inactive: -0.7%"},
      {"compound": "O=C1NC[C@H](CCCCN2CCN(CC3CCCCC3)C(=O)C2=O)N(CCc2ccccc2)C1=O", "inhibition": "inactive: 0%"},
      {"compound": "Cc1ccc(S(=O)(=O)Oc2ccccc2/C=C2/SC(=O)NC2=O)cc1", "inhibition": "inconclusive: 15.4%"},
      {"compound": "Nc1nc(NCc2ccc(Cl)cc2)nc(NCCO)c1[N+](=O)[O-]", "inhibition": "inactive: -0.4%"},
      {"compound": "O=C(Nc1cc(Cl)cc(Cl)c1)c1cnn2cccnc12", "inhibition": "inactive: 0.4%"},
      {"compound": "CCOC(=O)COc1ccc(C(=O)NC2CCCCC2)cc1", "inhibition": "inconclusive: 3.9%"},
      {"compound": "C(=N\\c1nc2ccccc2[nH]1)/c1cccs1", "inhibition": "inconclusive: -2.3%"},
      {"compound": "COc1ccc(-n2cccc2C=O)cc1OC", "inhibition": "inconclusive: 0.4%"},
      {"compound": "CCOC(=O)c1[nH]c2cc3c(cc2c1CCCN1C(=O)c2ccccc2C1=O)OCCO3", "inhibition": "inconclusive: 1.8%"},
      {"compound": "O=C(O)CCCC(=O)Nc1ccc(-n2ccc(C(F)(F)F)n2)cc1", "inhibition": "inconclusive: 0.1%"},
      {"compound": "CCN(C(C)=O)c1nc(CSc2nnc(NC(C)C)s2)cs1", "inhibition": "inconclusive: 1.4%"},
      {"compound": "COc1ccc(S(=O)(=O)N2CCN(C)CC2c2ccccc2)cc1OC", "note": "(centres undefined)", "inhibition": "inactive: 0.3%"},
      {"compound": "COC(=O)c1ccc(C(=O)OC)c(NC(=O)CSCC(=O)O)c1", "inhibition": "inconclusive: -0.1%"},
      {"compound": "FC(F)(F)c1cccc(Cn2nnnc2-c2cc(Cl)cc(Cl)c2)c1", "inhibition": "inconclusive: -1.8%"},
      {"compound": "O=c1[nH]c(C2CCN(S(=O)(=O)c3ccc4c(c3)OCCO4)CC2)nc2c1nnn2Cc1ccccc1", "inhibition": "inactive: -0.2%"},
      {"compound": "Cc1ccc2c(Cl)c(C(=O)NCc3cccnc3)sc2c1", "inhibition": "inconclusive: 0.6%"},
      {"compound": "CCOc1ccccc1N(C)C(=O)c1ccc2c(=O)n3c(nc2c1)CCCCC3", "inhibition": "inactive: 0.2%"},
      {"compound": "CCn1c2ccccc2c2nnc(SCC(=O)Nc3ncccn3)nc21", "inhibition": "inconclusive: 1.8%"},
      {"compound": "Cc1nnsc1C(=O)NNc1ccc(C(C)C)cc1", "inhibition": "inconclusive: -2.7%"},
      {"compound": "COc1ccc(/C(C)=C2/SC(=S)N(CCC(=O)O)C2=O)cc1", "inhibition": "inconclusive: 3.2%"},
      {"compound": "COC(=O)N[C@@H]1C[C@H]2[C@@H]3CC[C@H]4C[C@@H](OC)CC[C@]4(C)[C@H]3CC[C@@]12C", "inhibition": "inactive: 0.6%"},
      {"compound": "Cc1ccnc(NS(=O)(=O)c2ccc(NC(=O)c3c(-c4ccccc4Cl)noc3C)cc2)n1", "inhibition": "inconclusive: 1.4%"},
      {"compound": "COc1cccc(-n2nnc3c(=O)n(CC(=O)N4CCC(Cc5ccccc5)CC4)cnc32)c1", "inhibition": "inconclusive: -3.6%"},
      {"compound": "Cc1nc(-c2cccnc2)sc1C(=O)Nc1cccc(C(F)(F)F)c1", "inhibition": "inconclusive: -1.8%"},
      {"compound": "CC1CCN(C(=O)CSc2ccc(-c3ccccc3)nn2)CC1", "inhibition": "inactive: -0.6%"},
      {"compound": "c1ccc(-c2nn[nH]n2)cc1", "inhibition": "inconclusive: -11.3%"},
      {"compound": "COc1ccc(C2CC(=O)C=C(NCc3ccc4c(c3)OCO4)C2)cc1", "note": "(centres undefined)", "inhibition": "inconclusive: -1.6%"},
      {"compound": "O=c1oc2ccccc2cc1-c1nc(-c2cccs2)cs1", "inhibition": "active: 58%"},
      {"compound": "Clc1ccccc1-c1csc(Nc2cccnc2)n1", "inhibition": "inconclusive: -9.7%"},
      {"compound": "CC(Oc1ccc(Cl)cc1Cl)C(=O)/C=C/N(C)C", "note": "(centres undefined)", "inhibition": "inconclusive: 4.6%"},
      {"compound": "CCN1C(=O)C(=Cc2cccc(OC)c2Oc2ccc([N+](=O)[O-])cc2[N+](=O)[O-])SC1=S", "inhibition": "inactive: 1.1%"},
      {"compound": "CCCC(C)(C)C(=O)N1CCC1(C)C(=O)Nc1cccc2ccccc12", "note": "(centres undefined)", "inhibition": "inactive: -0.2%"},
      {"compound": "COc1ccc(-c2nc(C#N)c(NCc3ccc(C)cc3)o2)cc1OC", "inhibition": "inactive: -0.6%"},
      {"compound": "O=C1CNC(=O)N1CC(=O)N1CCCc2ccccc21", "inhibition": "inconclusive: 1%"},
      {"compound": "CSc1ccc(C(=O)C2CCCN(C(=O)Cn3cnnn3)C2)cc1", "note": "(centres undefined)", "inhibition": "inactive: -1.1%"},
      {"compound": "CCOC(=O)c1c(NC(=S)Nc2ccccc2)sc(C)c1C", "inhibition": "inconclusive: -0.2%"},
      {"compound": "CCN(CC)c1ccc(C(=O)c2ccccc2C(=O)O)c(O)c1", "inhibition": "inconclusive: -2.6%"},
      {"compound": "CCCOC(=O)C1=C(C)NC2=C(C(=O)C(C(=O)OC)C(C)C2)C1c1ccc(N(C)C)cc1", "note": "(centres undefined)", "inhibition": "inconclusive: 3.4%"},
      {"compound": "CCNC(=O)CN(c1ccccc1)S(=O)(=O)c1ccc(Cl)cc1", "inhibition": "inconclusive: 2.9%"},
      {"compound": "Cc1cc2ccccc2n1CCNC(=O)C(C)C", "inhibition": "active: 80.1%"},
      {"compound": "O=C(CSc1nnc(-c2cnccn2)n1Cc1ccco1)c1ccc2ccccc2c1", "inhibition": "inconclusive: -2.4%"},
      {"compound": "O=C(c1ccccc1)c1c[nH]c(C(=O)NCCCN2CCOCC2)c1", "inhibition": "inconclusive: 0.1%"},
      {"compound": "COC(=O)c1ccccc1NC(=O)COC(=O)c1ccc(C)c(NC(=O)c2ccco2)c1", "inhibition": "inconclusive: -4.8%"},
      {"compound": "CCCCCCCCS(=O)C1CS(=O)(=O)CC1O", "note": "(centres undefined)", "inhibition": "inconclusive: -39.1%"},
      {"compound": "O=C(/C=C/c1ccco1)N1CCN(c2ccc(F)cc2)CC1", "inhibition": "inconclusive: -52.7%"},
      {"compound": "O=C(CN1C(=O)/C(=C\\c2cccc(Br)c2)Oc2ccccc21)NCCCN1CCOCC1", "inhibition": "inactive: -0.1%"},
      {"compound": "COc1ccccc1C(=O)NC(=S)/C=C1/N(C)c2ccccc2C1(C)C", "inhibition": "active: 49.2%"},
      {"compound": "Cc1cc(=O)oc2c(CN3CCCCC3)c(O)ccc12", "inhibition": "inactive: 0.1%"},
      {"compound": "C=CCNC(=O)C1CC(=O)N(c2ccc(OCC(=O)Nc3ccc(Cl)cc3)cc2)C1", "note": "(centres undefined)", "inhibition": "inconclusive: 1.6%"},
      {"compound": "O=C(COc1ccc(Br)cc1)N1CCc2ccccc21", "inhibition": "inconclusive: 4.7%"},
      {"compound": "CCSc1ccc(C(=O)NCC(=O)O)cc1", "inhibition": "inconclusive: -3.9%"},
      {"compound": "Cc1cc(C)cc(OCC(=O)OCC(=O)N2CCc3ccccc32)c1", "inhibition": "inactive: -2.8%"},
      {"compound": "CCCc1cc(=O)oc2cc(OCC(=O)N(C)C)c(Cl)cc12", "inhibition": "inactive: -0.3%"},
      {"compound": "CCOP(=O)(c1ccc(N(C)C)cc1)C(O)c1ccccc1OC", "note": "(centres undefined)", "inhibition": "inconclusive: 9.8%"},
      {"compound": "COc1ccc(OC)c(C2=NOC(C(=O)NCCN3CCOCC3)C2)c1", "note": "(centres undefined)", "inhibition": "inconclusive: 3.3%"},
      {"compound": "Cc1nc(C(=O)N2CCOCC2)sc1C1(C)CC(c2ccccc2)=NO1", "note": "(centres undefined)", "inhibition": "inactive: -1.1%"},
      {"compound": "Nc1cc(=O)nc(SCC(=O)N(C2CCCCC2)C2CCCCC2)n1-c1ccccc1", "inhibition": "inconclusive: 0.7%"}
    ]}
  ]
}
